Results are given in words; binding and its absence hold for the method and conditions named. For some of these results: In cells and extracts the contact can be indirect. Some entries that bind do so weakly or less than the wild type.
Key:
[1] = target: radixin_(1-318), Strep-tagged, purified (human) (UniProt P35241); assay: pull-down; Strep-tagged partner immobilised on Strep-Tactin resin, detergent-solubilised purified BSEP added for 30 min at 4°C; 50 mM sodium phosphate pH 7, 150 mM NaCl, 20% glycerol, 0.022% DDM; immunoblot against BSEP and Strep-tag II; both purified
[2] = target: bile salt export pump (BSEP, ABCB11), MYTH bait (human) (UniProt O95342); assay: two-hybrid; membrane yeast two-hybrid (MYTH, split-ubiquitin) in S. cerevisiae NMY51; bait BSEP-Cub-LexA-VP16 (pBT3-C), preys NubG-X human adult liver cDNA library; growth on SD-LWH, then SD-LWHAd with X-Gal; retransformation of each prey and bait dependency test against large T antigen-Ost4p; control with NubG-nonsense peptide
[3] = target: bile salt export pump (BSEP, ABCB11), endogenous in human liver (human (endogenous in human liver)) (UniProt O95342); assay: co-IP; BSEP immunoprecipitated with monoclonal antibody F-6 from human liver membranes solubilised in 1% Triton X-100; immunoblot; control naive mouse IgG2a

The chains behind the UniProt entries cited, without tags or fusion partners. Where a name states a change or a piece, a line headed by the entry shows the natural chain unless it says otherwise. Residues count along the entry.
UniProt P35241, residues 1-318: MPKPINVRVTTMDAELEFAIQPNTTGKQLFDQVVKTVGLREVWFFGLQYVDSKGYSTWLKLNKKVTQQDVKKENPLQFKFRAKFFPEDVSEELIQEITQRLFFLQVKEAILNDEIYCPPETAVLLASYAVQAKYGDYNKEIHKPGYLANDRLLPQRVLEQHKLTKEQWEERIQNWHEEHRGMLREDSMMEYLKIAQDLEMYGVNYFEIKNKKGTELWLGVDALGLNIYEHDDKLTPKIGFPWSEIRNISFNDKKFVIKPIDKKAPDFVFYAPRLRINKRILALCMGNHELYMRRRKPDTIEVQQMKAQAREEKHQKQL
UniProt O95342: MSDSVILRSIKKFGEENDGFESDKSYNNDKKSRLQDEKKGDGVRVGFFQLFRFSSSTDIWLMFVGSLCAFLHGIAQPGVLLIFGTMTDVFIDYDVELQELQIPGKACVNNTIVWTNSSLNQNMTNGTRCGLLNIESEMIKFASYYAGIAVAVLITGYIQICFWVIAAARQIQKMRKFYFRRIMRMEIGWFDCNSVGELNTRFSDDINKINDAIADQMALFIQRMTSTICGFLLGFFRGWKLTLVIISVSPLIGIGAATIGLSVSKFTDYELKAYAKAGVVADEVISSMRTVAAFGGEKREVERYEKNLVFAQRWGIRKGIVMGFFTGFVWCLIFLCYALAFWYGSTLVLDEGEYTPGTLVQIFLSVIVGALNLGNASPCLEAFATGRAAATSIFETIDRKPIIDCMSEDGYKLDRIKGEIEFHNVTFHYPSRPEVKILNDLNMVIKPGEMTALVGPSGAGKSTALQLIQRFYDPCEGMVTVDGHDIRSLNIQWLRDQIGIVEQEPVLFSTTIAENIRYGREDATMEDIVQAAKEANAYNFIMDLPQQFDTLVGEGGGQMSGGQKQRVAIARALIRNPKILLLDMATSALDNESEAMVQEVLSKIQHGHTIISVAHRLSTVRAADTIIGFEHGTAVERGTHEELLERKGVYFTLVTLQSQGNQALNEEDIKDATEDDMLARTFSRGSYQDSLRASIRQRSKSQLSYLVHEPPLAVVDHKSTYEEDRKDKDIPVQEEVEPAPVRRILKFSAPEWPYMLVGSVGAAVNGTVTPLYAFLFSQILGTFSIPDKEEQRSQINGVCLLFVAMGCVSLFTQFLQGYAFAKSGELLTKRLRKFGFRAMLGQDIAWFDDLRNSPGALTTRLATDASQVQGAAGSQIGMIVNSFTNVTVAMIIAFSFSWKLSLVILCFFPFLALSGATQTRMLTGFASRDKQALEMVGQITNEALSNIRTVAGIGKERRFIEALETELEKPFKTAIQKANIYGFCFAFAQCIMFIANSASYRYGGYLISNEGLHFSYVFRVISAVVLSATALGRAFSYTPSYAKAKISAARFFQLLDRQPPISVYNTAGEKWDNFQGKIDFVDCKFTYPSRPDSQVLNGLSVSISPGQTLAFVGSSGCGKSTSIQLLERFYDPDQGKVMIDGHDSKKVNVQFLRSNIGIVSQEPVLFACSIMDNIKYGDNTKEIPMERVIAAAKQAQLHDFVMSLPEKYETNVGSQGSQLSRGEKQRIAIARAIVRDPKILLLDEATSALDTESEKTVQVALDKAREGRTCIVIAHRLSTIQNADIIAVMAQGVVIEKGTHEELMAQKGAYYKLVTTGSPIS

## bile salt export pump (BSEP), purified, with C-terminal affinity tags (from UniProt O95342 1-1321)
[1]
  binding: binds

## radixin_(1-318), MYTH prey (from UniProt P35241-5 1-318) (domain or fragment)
[2]
  binding: binds

B1: bile acyl-CoA synthetase, endogenous in human liver (enzyme, UniProt Q9Y2P5-1 1-690)
chain: MGVRQQLALLLLLLLLLWGLGQPVWPVAVALTLRWLLGDPTCCVLLGLAMLARPWLGPWVPHGLSLAAAALALTLLPARLPPGLRWLPADVIFLAKILHLGLKIRGCLSRQPPDTFVDAFERRARAQPGRALLVWTGPGAGSVTFGELDARACQAAWALKAELGDPASLCAGEPTALLVLASQAVPALCMWLGLAKLGCPTAWINPHGRGMPLAHSVLSSGARVLVVDPDLRESLEEILPKLQAENIRCFYLSHTSPTPGVGALGAALDAAPSHPVPADLRAGITWRSPALFIYTSGTTGLPKPAILTHERVLQMSKMLSLSGATADDVVYTVLPLYHVMGLVVGILGCLDLGATCVLAPKFSTSCFWDDCRQHGVTVILYVGELLRYLCNIPQQPEDRTHTVRLAMGNGLRADVWETFQQRFGPIRIWEVYGSTEGNMGLVNYVGRCGALGKMSCLLRMLSPFELVQFDMEAAEPVRDNQGFCIPVGLGEPGLLLTKVVSQQPFVGYRGPRELSERKLVRNVRQSGDVYYNTGDVLAMDREGFLYFRDRLGDTFRWKGENVSTHEVEGVLSQVDFLQQVNVYGVCVPGCEGKVGMAAVQLAPGQTFDGEKLYQHVRAWLPAYATPHFIRIQDAMEVTSTFKLMKTRLVREGFNVGIVVDPLFVLDNRAQSFRPLTAEMYQAVCEGTWRL
[3]
  binding: binds

B2: bile acyl-CoA synthetase, BACS_(640-690), MYTH prey (domain or fragment, UniProt Q9Y2P5-1 640-690)
chain: TFKLMKTRLVREGFNVGIVVDPLFVLDNRAQSFRPLTAEMYQAVCEGTWRL
[2]
  binding: binds
